Reference: PubChem BioAssay AID1259415 (National Center for Advancing Translational Sciences (NCATS), 2018)
Among all 410,000 compounds or so, about 18,000 (4.4%) were called active. Inconclusive results, whose numbers are uncertain, are shown with a selection of clear calls. No stated cut-off is given here; in the data, active means activity change below about -60%; inconclusive means no clear call, values can overlap the other calls; inactive means above about -39%.

Assay: qHTS Assay for inhibitors of the human cytomegalovirus (HCMV)
Conditions: HFF cells, HCMV-luciferase reporter, 72 h; at 57.5 µM; hits give low values
Outline: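 Human foreskin fibroblasts infected with luciferase-reporter HCMV at MOI 1 PFU/cell, compounds at two doses. Luciferase measured 72 h post infection; normalized to buffer-only basal and Salinomycin (10uM) controls.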
On the % scale 0 is the no-effect control and ±100 the full control effect.

Structure (SMILES) | activity change, negative = inhibition
C=C(C)COc1ccc(-c2n[nH]c(C)c2-c2ccccc2)c(O)c1 | inconclusive: -46.3%
O=C(Nc1cccc(Cl)c1)Nc1ccc2nccnc2c1 | active: -76.5%
Cc1nc2ccccc2c(=O)n1-c1ccc(Br)cc1[N+](=O)[O-] | inconclusive: -56.9%
Cc1oc2cc(O)ccc2c(=O)c1Oc1ccccc1Br | inconclusive: -44.9%
COc1ccc2c(-c3ccccc3)cc(=S)[nH]c2c1 | inconclusive: -44.7%
COc1ccc(S(=O)(=O)N2CCCC(C(=O)Nc3cccc(C(C)=O)c3)C2)cc1 (centres undefined) | active: -66.2%
Cc1ccccc1NC(=O)c1cc(S(=O)(=O)N2CCCCC2)ccc1N1CCOCC1 | inconclusive: -59.1%
CCOC(=O)N1CCN(C(=O)c2ccccc2NC(=O)c2ccc(C(C)(C)C)cc2)CC1 | inconclusive: -49.7%
CCN(CC)S(=O)(=O)c1cccc(C(=O)OCC(=O)c2ccc3c(c2)NC(=O)CO3)c1 | inconclusive: -44%
COc1ccc(-c2c(C)nc(N)nc2-c2ccc(OCc3ccc(C)cc3)cc2O)cc1OC | inconclusive: -41.3%
O=C(CCl)Nc1cc(S(=O)(=O)N2CCCCCC2)ccc1Cl | active: -64.1%
O=C(COc1ccccc1)N/N=C/c1cc2c(cc1[N+](=O)[O-])OCO2 | inactive: 3.98%
COCCOC(=O)c1c(NC(=O)CNc2ccc(C)c(F)c2)sc(C(N)=O)c1C | inconclusive: -55%
O=C(c1ccc(Cn2cc(Br)cn2)cc1)N1N=C(C(F)F)CC1(O)C(F)F (centres undefined) | inconclusive: -48.3%
COCC(C)n1c(C)cc(C(=O)COC(=O)c2ccc3c(c2)NC(=O)CS3)c1C (centres undefined) | inconclusive: -51.1%
Cn1cnc2c1c(=O)n(Cc1cccc(Cl)c1)c(=O)n2C | inconclusive: -59.7%
COc1ccc(-c2nc(NC(=O)c3n[nH]c(=O)c4ccccc34)sc2C)cc1 | active: -60.4%
c1ccc(CN2CCN(Cc3cn4cccnc4n3)CC2)cc1 | inactive: -22.6%
O=C(Nc1ccc(S(=O)(=O)NCC2CCCO2)cc1)c1ccccc1 (centres undefined) | inconclusive: -57.6%
CCn1cc2nc(SCc3cccc(C(F)(F)F)c3)n(Cc3ccc(OC)cc3)c(=O)c2n1 | inconclusive: -48.5%
Cc1ccnc(N/C=C(/NC(=O)c2ccccc2)C(=O)N/N=C\c2ccc(Cl)cc2)n1 | inconclusive: -46.2%

Pulled by structure from the list above (three):
Structure (SMILES) | activity change, negative = inhibition
CCn1cc2nc(SCc3cccc(C(F)(F)F)c3)n(Cc3ccc(OC)cc3)c(=O)c2n1 | inconclusive: -48.5%
O=C(COc1ccccc1)N/N=C/c1cc2c(cc1[N+](=O)[O-])OCO2 | inactive: 3.98%
Cc1nc2ccccc2c(=O)n1-c1ccc(Br)cc1[N+](=O)[O-] | inconclusive: -56.9%

Part of the list above, with each value named:
O=C(Nc1ccc(S(=O)(=O)NCC2CCCO2)cc1)c1ccccc1 (centres undefined)
  activity change, negative = inhibition: inconclusive: -57.6%
CCn1cc2nc(SCc3cccc(C(F)(F)F)c3)n(Cc3ccc(OC)cc3)c(=O)c2n1
  activity change, negative = inhibition: inconclusive: -48.5%

Continued.

Structure (SMILES) | activity change, negative = inhibition
Cc1ccc(C)c(NC(=O)Cc2nc(CNCC(C)C)cs2)c1 | inactive: -13.3%
CC(=O)N1c2ccc(S(=O)(=O)N3CCCC(C(=O)NCc4ccccc4)C3)cc2CC1C (centres undefined) | inconclusive: -53.3%
COc1ccc(Cn2cc(CN3CCc4onc(-c5ccccc5OC)c4C3=O)nn2)cc1 | inactive: 1.19%
Cc1cccc(N2CCN(C(=O)c3cc4c(=O)n(C)c5ccccc5c4n3C)CC2)c1C | inconclusive: -49.6%
CN(C)CCCN(C(=O)c1ccc(S(=O)(=O)N2CCc3ccccc32)cc1)c1nc2ccc(F)cc2s1 | inactive: 7.61%
CC(C)Sc1nnc([C@H](Cc2c[nH]c3ccccc23)NC(=O)OC(C)(C)C)o1 | inconclusive: -40.6%
CCOc1ccc(N(CC(=O)N2CCC(Cc3ccccc3)CC2)S(C)(=O)=O)cc1 | inconclusive: -44.9%
O=C(c1ccc(-n2cccn2)cc1)N1CCN(c2ncccc2C(F)(F)F)CC1 | inconclusive: -55.6%
O=C(Nc1cccc(C(F)(F)F)c1)C1CCN(S(=O)(=O)c2cccs2)CC1 | inconclusive: -47.5%
C=C(C)Cn1c(SCC(=O)c2ccccc2)nc2sc3c(c2c1=O)CCCC3 | inconclusive: -43.5%
NS(=O)(=O)c1ccc(NC(=S)NCc2ccco2)cc1 | inactive: 8.4%
COc1ccccc1C(O)c1nc(C(=O)Nc2ccc(F)cc2)cs1 (centres undefined) | inconclusive: -49.3%
Cc1cccn2c(=O)c(/C=C(\C#N)C(=O)NC3CCS(=O)(=O)C3)c(N3CCC(C(N)=O)CC3)nc12 (centres undefined) | inconclusive: -48.4%
CC1=CC(=O)C(C(C)C)=C/C1=C(\c1cc(C(C)C)c(OP(=O)(O)O)cc1C)c1ccccc1C(=O)O | active: -98.2%
CCOc1ccccc1Nc1nnc(SC(C)C(=O)Nc2nc(-c3ccccc3)cs2)s1 (centres undefined) | inactive: -33.8%
O=C(COC(=O)CNC(=O)c1ccc(Br)cc1)NCCC1=CCCCC1 | inconclusive: -40.8%
Cc1ccc(-c2nn(-c3cc(Cl)ccc3[N+](=O)[O-])c(=O)c3ccccc23)cc1 | inconclusive: -48.4%
COc1ccc(CSc2nnc(C)n2N)cc1[N+](=O)[O-] | inconclusive: -41.6%
OC(c1cc(-c2cccc(Cl)c2)nc2ccccc12)C1CCCCN1 (centres undefined) | active: -98.4%
CCc1ccc(-c2nnn(CCC(=O)OC)n2)cc1 | inconclusive: -45.8%
Cc1nc2ccccc2nc(C)c1=NOCc1cccc(F)c1 | inconclusive: -47.1%

Structure (SMILES) | activity change, negative = inhibition
CN(C(=O)c1nn(C)c2c1CSc1ccccc1-2)c1ccc(F)cc1 | inactive: 153%
Cc1ccc(NC(=O)CN(C)C2CCCCC2)cc1Cl | inconclusive: -54.8%
O=C(Nc1nc(-c2ccccn2)cs1)C12CC3CC(CC(O)(C3)C1)C2 | inactive: 33.1%
CCS(=O)(=O)c1ncc(Cl)c(C(=O)NCc2ccccc2)n1 | active: -100%
COc1ccc(Br)cc1/C=C/C(=O)c1ccc(NC(C)=O)cc1 | active: -97.6%
Cc1ccc(NC(=O)c2c([N+](=O)[O-])c(C(C)(C)C)nn2C)c(C)c1 | inconclusive: -49.3%
O=C(c1ccco1)N1CCN(C(c2cccs2)c2nnnn2C2CCCCC2)CC1 (centres undefined) | inconclusive: -52.1%
C/C(CC(=O)Nc1ccc2c(c1)OCO2)=N\NC(=O)C(c1ccccc1)c1ccccc1 | inconclusive: -48.7%
CCOC(=O)[C@@H]1[C@H]2COc3cc(OC)ccc3[C@H]2N2C(=O)N(c3ccc(C(F)(F)F)cc3)C(=O)[C@]12C | active: -87.5%
NC(=O)c1ccc[n+](Cc2ccccc2)c1 | inactive: -39.2%
CCCCn1c(=O)[nH]c(=O)c2c(C(=O)OCC)cc(-c3ccc(OC(F)F)cc3)nc21 | inconclusive: -44.4%
N#Cc1nc(-c2ccccc2F)oc1NCCc1ccccn1 | inconclusive: -45.5%
CCN1CCN(C(=O)Cn2nc(C)c3sc4ccccc4c3c2=O)CC1 | inconclusive: 0%
NNC(=O)Cn1nc2n(c1=O)-c1ccccc1SC2 | inconclusive: -46.2%
COCc1cc(=O)[nH]c2cc(NC(=O)C3CC3)c(C)cc12 | inactive: 14%
COc1cccc(NC(=O)CN2CCN(S(=O)(=O)c3ccc(F)cc3)CC2)c1 | inconclusive: -50.1%
Cc1ccc(NC(=O)C(Cc2ccccc2)N2Cc3ccccc3C2=O)cc1Cl (centres undefined) | inactive: -32.3%
COc1cc(C(=O)OCC(=O)c2cc(C)n(C)c2C)cc(NC(=O)c2ccco2)c1OC | inconclusive: -45.4%
CCN(CC)CCN(C(=O)c1ccc2c(c1)CCCC2)c1nc2ccc(OC)cc2s1 | inactive: -2.25%
CO/N=C\CC(=O)Nc1ccc(Cl)c(Cl)c1 | inconclusive: -55%
COc1ccc(C(=O)Cn2c(Br)nc3c2c(=O)n(C)c(=O)n3C)cc1 | inconclusive: -54.6%

Structure (SMILES) | activity change, negative = inhibition
COc1ccc(C2=NN(C(=O)c3cccnc3)C(c3ccccc3)C2)cc1 (centres undefined) | inconclusive: -59.2%
O=C(Nc1ccc2c(c1)OCCO2)c1ccccc1Cl | inactive: 56.6%
Cc1ccc(S(=O)(=O)n2c3ccc(Cl)cc3c3nc(C)sc32)cc1 | inconclusive: -44.8%
COc1ccc(NC(=O)N[C@H]2CC[C@@H](CC(=O)NC3CCC3)O[C@@H]2CO)cc1 | inactive: -27.5%
COc1ccc(C(=O)N/N=C/c2ccc(N3CCOCC3)o2)cc1OC | inactive: -38.9%
COCC(C)n1c(C)cc(C(=O)CSc2nc3ccccc3c(=O)[nH]2)c1C (centres undefined) | inconclusive: -50.7%
N#CC(=C(O)CN1CCN(c2ccccc2F)CC1)c1nc(-c2ccccc2)cs1 | active: -70.8%
CC(=O)N(C1=C(Cl)C(=O)c2ccccc2C1=O)c1ccc(C(=O)O)cc1 | inconclusive: -43.3%
COc1ccccc1N=C1SC(C(=O)Nc2ccccc2OC)CC(=O)N1C (centres undefined) | inactive: -16.9%
COCCn1c(SCC(=O)NNC(=O)c2ccccc2)nc2ccccc21 | inactive: 48.8%
CC(NC(=O)COC(=O)Cn1cc(C(F)(F)F)ccc1=O)c1ccccc1 (centres undefined) | inconclusive: -57.2%
CCOc1ncccc1C(=O)Nc1ccc(OC)c(S(=O)(=O)N2CCCCC2)c1 | inactive: 5.01%
O=C(NC(=S)N1CCCC1)c1ccc(Cl)cc1Cl | inconclusive: -46.1%
Cc1nn2c(Nc3ccccc3)c3c(nc2c1-c1ccccc1)CCC3 | inconclusive: -43.8%
CCCN(CC(=O)Nc1ccccc1OC)C(=O)c1ccncc1 | inconclusive: -42.4%
CC(=O)N1CCSc2ccc(S(=O)(=O)NCc3ccc(F)cc3)cc21 | inconclusive: -40.2%
COc1ccccc1N1CCN(S(=O)(=O)CCNC(=O)Cc2ccc(Cl)cc2)CC1 | inconclusive: -51.6%
CC(Oc1ccc(F)cc1)C(=O)Nc1nc(-c2ccccn2)cs1 (centres undefined) | active: -90.3%
COc1ccc2c3c([nH]c2c1)C1CC2C(CC(O)C(OC)C2CO)CN1CC3 (centres undefined) | inactive: 1.28%
C[C@]12c3[nH]c4cc(-c5ccco5)ccc4c3CCN1C(=O)[C@@H](CC(=O)NCCC1=CCCCC1)C[C@@H]2C(=O)N1CCCCC1 | inactive: -13.6%
CCCCc1nc2ccccc2c(=O)n1NC(=O)c1c(O)c2ccccc2n(C)c1=O | inconclusive: -57.2%
